# Reference: US20120107364A1 (ACTGEN, published 2012)
# Results are given in words; binding and its absence hold for the method and conditions named. Some results given as binding are weak or reduced against the parent protein; the word gives no strength.
# T1: PODXL2, positions 1 to 428 (full-length extracellular region) (human) (UniProt O00592)
# T1 sequence: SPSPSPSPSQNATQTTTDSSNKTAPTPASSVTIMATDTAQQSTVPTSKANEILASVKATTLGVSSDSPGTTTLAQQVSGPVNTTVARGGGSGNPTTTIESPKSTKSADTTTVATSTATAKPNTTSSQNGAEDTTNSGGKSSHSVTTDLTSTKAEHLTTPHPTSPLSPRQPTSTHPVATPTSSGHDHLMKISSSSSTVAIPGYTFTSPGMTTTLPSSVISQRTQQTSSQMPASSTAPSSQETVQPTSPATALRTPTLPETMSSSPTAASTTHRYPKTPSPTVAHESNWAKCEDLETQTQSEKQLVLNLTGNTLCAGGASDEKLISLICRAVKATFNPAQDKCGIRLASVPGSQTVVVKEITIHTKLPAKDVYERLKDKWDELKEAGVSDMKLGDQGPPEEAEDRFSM
# Target: T1, PODXL2, positions 1 to 428 (full-length extracellular region) (human)
# Assay: flow cytometry on Ba/F3 cells expressing the truncated PODXL2
binder,measurement,value
"ACT36-27-5D1 antibody (antibody, V domains shown, also called anti-PODXL2 antibody ACT36-27-5D1; anti-ACT36-27-5D1 monoclonal antibody) VH: EVQLQQSGPELVKPGASVKMSCKASGYTFTSYVMHWVKQKPGQGLEWIGYIHPYNDGIKYNEKFKGKATLTSDKSSSTAYMDLSSLTSEDSAVYYCARSWDWYFDVWAAGTTVTVSS VL: QIVLTQSPAIMSASPGEKVSMTCSASSSVSYMHWYQQKSGTSPKRWIYDTSKLASGVPARFSGSGSGTSYSLTISSMEAEDAATYYCLQWSSNPPTFGGGTKLE",binding,binds
